Measured values as given in PMC3031889.
No constants are given. Whether binding was seen depends on the method and setting. In cells and extracts the contact can be indirect. Some entries that bind do so weakly or less than the wild type.

By UniProt entry, the sequences of proteins in these tests, tags left out. Where a name states a change or a piece, a line headed by the entry shows the natural chain unless it says otherwise.
UniProt P60953: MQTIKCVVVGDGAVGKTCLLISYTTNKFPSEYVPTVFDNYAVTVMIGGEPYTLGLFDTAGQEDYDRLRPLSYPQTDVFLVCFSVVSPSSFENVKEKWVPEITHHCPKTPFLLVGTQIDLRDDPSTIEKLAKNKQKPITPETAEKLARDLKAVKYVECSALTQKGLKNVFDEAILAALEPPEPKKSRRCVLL

T1: GEF16 (ARHGEF16), endogenous in C33A-derived cells (human (endogenous in C33A)) (UniProt Q5VV41)
T1 sequence: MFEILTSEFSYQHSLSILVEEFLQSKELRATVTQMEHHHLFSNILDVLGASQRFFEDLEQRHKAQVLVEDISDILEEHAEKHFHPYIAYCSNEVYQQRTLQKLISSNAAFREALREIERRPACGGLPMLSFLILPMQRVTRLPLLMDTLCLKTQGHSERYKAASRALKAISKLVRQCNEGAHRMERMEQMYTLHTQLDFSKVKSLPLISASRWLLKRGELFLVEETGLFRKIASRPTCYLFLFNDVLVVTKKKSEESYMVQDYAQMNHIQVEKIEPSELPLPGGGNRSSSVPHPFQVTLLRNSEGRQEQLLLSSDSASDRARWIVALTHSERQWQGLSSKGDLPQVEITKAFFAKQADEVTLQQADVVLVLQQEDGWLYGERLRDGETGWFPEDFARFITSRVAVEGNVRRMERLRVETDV


Tests used:
[1] = molecular target: T1, GEF16 (ARHGEF16), endogenous in C33A-derived cells (human (endogenous in C33A)); experiment: co-IP; anti-GEF16 and protein G-sepharose, 48 h, 4 C, lysate of C33AT16 E6 cells (stably express HPV16 E6) treated with 10 uM MG132 for 4 h; blots for Tip-1 and Cdc42
[2] = molecular target: T1, GEF16 (ARHGEF16), endogenous in C33A-derived cells (human (endogenous in C33A)); experiment: co-IP; anti-GEF16 and protein G-sepharose, 48 h, 4 C, lysate of C33AV vector control cells treated with 10 uM MG132 for 4 h; blots for Tip-1 and Cdc42

binding [1]	binding [2]	Molecule
binds	–	Cdc42, endogenous in C33A-derived cells (from UniProt P60953 1-191)
binds	binds	Tip-1, endogenous in C33A-derived cells (protein, UniProt O14907 1-124) MSYIPGQPVTAVVQRVEIHKLRQGENLILGFSIGGGIDQDPSQNPFSEDKTDKGIYVTRVSEGGPAEIAGLQIGDKIMQVNGWDMTMVTHDQARKRLTKRSEEVVRLLVTRQSLQKAVQQSMLS
